Where a chain is given by its changes, count along the chain named. No constants are given. Whether binding was seen depends on the method and setting. In cells and extracts the contact can be indirect. Some binding calls cover weakened binding; strength is not graded here. Where a sequence is shown, tags or fusion partners need not be part of it.
Tests used:
Test in all cases: pull-down; GST-Gal80 fusions immobilised on GSH sepharose, incubated with bacterial (E. coli) total protein extracts containing HA3-Cyc8 or HA3-Tup1; washing of intermediary stringency; elution with 10 mM free GSH; SDS-PAGE and blot with anti-HA-peroxidase conjugate; only the target purified
[1] = molecular target: T1, GST-Gal80 aa 81-145 Y118A (S. cerevisiae) (UniProt P04387)
T1 sequence: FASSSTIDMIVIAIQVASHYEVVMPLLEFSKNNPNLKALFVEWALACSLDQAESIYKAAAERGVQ

Protein sequences, listed by entry. Tags and fused reporters are not part of them.
UniProt P16649: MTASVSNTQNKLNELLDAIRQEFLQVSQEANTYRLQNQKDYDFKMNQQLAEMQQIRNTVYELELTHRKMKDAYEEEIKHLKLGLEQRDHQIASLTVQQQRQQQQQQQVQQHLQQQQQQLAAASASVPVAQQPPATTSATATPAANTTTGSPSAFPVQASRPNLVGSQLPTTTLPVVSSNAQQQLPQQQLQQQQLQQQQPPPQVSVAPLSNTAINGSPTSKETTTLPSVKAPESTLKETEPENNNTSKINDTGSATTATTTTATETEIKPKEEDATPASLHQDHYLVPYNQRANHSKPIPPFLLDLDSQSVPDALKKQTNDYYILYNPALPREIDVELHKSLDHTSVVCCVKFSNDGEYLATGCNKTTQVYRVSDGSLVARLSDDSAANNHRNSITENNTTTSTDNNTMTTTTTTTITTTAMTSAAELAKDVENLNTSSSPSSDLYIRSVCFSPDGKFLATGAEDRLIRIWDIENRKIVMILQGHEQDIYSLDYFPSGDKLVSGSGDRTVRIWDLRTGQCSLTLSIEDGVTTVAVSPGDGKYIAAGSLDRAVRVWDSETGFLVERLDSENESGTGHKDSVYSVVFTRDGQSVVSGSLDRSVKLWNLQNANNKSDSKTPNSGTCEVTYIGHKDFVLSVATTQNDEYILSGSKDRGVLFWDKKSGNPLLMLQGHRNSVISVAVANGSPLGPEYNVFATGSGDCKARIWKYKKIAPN

[2] = molecular target: T2, GST-Gal80 aa 81-145 F120A (S. cerevisiae) (UniProt P04387)
T2 sequence: T1 sequence with A38Y, F40A

[3] = molecular target: T3, GST-Gal80 aa 81-145 W123A (S. cerevisiae) (UniProt P04387)
T3 sequence: T1 sequence with A38Y, W43A

[4] = molecular target: T4, GST-Gal80 aa 81-145 YLF-AAA (pos. 118-120) (S. cerevisiae) (UniProt P04387)
T4 sequence: T1 sequence with L39A, F40A

[5] = molecular target: T5, GST-Gal80 aa 146-290 (S. cerevisiae) (UniProt P04387)
T5 sequence: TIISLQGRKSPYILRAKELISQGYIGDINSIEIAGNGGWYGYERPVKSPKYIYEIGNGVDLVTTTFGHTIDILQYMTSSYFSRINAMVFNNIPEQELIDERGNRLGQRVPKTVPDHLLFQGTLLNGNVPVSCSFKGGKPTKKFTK

[6] = molecular target: T6, GST-Gal80 aa 81-145 LFV-AAA (pos. 119-121) (S. cerevisiae) (UniProt P04387)
T6 sequence: T1 sequence with A38Y, L39A, F40A, V41A

[7] = molecular target: T7, GST-Gal80 aa 291-435 (S. cerevisiae) (UniProt P04387)
T7 sequence: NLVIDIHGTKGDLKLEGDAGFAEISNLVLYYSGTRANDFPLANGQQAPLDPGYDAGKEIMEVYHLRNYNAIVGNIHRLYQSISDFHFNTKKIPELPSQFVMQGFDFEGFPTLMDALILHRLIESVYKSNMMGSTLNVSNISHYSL

[8] = molecular target: T8, GST-Gal80 aa 81-145 L119A (S. cerevisiae) (UniProt P04387)
T8 sequence: T1 sequence with A38Y, L39A

[9] = molecular target: T9, GST-Gal80 aa 81-145 V121A (S. cerevisiae) (UniProt P04387)
T9 sequence: T1 sequence with A38Y, V41A

[10] = molecular target: T10, GST-Gal80 aa 81-145 (repression-mediating domain, wild-type) (S. cerevisiae) (UniProt P04387)
T10 sequence: T1 sequence with A38Y

[11] = molecular target: T11, GST-Gal80 aa 81-145 K117A (S. cerevisiae) (UniProt P04387)
T11 sequence: T1 sequence with K37A, A38Y

- binding [1]: binds
- binding [2]: binds
- binding [3]: binds
- binding [4]: binds
- binding [5]: binds
- binding [6]: binds
- binding [7]: no binding
- binding [8]: binds
- binding [9]: binds
- binding [10]: binds
- binding [11]: binds
Substance: HA3-Tup1 (full length) (from UniProt P16649 1-713)

— article PMC8801411
